The record followed here is the supplement of paper PMC6411743.

Protein sequences, listed by entry. Tags and fused reporters are not part of them. Lines headed by an entry give the natural chain unless they say otherwise; changes in a name come on top.
UniProt Q9UKM9: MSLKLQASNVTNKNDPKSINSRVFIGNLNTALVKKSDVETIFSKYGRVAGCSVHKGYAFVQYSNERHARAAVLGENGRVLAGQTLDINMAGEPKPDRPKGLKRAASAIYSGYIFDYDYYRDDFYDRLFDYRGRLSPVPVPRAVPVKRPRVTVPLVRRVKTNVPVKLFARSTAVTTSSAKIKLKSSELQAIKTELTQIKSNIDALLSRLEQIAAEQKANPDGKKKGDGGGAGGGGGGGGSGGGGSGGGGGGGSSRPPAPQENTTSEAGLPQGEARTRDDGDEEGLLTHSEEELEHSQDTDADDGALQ
UniProt Q9ULE6: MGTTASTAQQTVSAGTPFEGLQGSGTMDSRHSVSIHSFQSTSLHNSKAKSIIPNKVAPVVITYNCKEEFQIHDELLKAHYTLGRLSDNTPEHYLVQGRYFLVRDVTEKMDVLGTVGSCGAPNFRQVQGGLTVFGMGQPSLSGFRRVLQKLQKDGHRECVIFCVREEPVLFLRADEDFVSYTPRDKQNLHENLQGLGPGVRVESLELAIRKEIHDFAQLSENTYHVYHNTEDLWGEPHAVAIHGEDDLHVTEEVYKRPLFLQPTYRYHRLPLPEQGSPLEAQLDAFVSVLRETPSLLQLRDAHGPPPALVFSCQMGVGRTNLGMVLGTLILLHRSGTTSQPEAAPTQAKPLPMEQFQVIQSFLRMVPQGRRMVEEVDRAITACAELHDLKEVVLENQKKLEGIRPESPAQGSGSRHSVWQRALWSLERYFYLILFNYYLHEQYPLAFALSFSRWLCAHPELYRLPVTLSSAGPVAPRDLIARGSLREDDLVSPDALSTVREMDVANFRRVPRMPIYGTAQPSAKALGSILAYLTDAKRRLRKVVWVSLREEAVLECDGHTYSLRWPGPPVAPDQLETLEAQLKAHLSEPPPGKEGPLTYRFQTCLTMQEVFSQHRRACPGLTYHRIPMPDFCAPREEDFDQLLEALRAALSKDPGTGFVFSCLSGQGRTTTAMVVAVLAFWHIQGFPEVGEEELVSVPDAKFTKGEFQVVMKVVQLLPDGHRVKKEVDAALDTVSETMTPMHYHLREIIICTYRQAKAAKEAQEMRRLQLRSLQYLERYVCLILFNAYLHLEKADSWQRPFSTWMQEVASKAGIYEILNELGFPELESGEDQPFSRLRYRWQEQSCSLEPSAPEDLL
UniProt Q9UJU2, whole entry: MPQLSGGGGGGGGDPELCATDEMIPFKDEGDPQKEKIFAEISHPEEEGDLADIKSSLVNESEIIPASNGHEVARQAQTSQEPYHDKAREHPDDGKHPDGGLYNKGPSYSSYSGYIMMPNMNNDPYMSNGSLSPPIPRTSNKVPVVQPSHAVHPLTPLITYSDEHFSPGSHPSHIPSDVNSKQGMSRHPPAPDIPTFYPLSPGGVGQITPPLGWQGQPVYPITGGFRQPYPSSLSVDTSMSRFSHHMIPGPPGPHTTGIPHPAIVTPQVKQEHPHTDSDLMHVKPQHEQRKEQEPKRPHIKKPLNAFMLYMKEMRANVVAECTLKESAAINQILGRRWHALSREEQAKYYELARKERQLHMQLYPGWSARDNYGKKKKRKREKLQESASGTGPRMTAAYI
UniProt Q9Y2H1: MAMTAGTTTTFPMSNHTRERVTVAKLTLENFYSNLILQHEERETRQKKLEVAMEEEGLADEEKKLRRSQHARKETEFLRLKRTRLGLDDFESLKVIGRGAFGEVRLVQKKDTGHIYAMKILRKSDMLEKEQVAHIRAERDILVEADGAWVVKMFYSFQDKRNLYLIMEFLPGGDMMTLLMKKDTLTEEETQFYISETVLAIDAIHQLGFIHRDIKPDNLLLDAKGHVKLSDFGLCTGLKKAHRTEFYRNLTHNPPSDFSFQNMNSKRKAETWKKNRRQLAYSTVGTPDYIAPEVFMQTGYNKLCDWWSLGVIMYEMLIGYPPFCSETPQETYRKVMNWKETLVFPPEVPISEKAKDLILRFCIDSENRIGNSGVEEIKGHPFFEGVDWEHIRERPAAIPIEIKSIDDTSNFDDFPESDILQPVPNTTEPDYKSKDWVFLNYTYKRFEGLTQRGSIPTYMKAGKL
UniProt Q9Y2G2: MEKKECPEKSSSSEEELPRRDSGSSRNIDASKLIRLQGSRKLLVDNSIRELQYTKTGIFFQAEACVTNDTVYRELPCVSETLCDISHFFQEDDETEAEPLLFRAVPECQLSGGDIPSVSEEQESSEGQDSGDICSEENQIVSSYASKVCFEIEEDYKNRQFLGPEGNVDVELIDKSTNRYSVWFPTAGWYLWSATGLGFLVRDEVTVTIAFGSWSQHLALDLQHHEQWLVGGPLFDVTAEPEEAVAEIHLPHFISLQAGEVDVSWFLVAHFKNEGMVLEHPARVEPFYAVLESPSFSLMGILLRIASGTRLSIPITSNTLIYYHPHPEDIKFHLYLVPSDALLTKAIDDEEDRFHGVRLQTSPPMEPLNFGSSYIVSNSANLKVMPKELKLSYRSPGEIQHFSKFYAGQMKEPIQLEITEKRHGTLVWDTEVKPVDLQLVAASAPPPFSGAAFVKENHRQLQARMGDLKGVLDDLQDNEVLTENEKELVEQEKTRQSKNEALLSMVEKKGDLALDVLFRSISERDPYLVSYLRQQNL
UniProt Q9UER7, whole entry: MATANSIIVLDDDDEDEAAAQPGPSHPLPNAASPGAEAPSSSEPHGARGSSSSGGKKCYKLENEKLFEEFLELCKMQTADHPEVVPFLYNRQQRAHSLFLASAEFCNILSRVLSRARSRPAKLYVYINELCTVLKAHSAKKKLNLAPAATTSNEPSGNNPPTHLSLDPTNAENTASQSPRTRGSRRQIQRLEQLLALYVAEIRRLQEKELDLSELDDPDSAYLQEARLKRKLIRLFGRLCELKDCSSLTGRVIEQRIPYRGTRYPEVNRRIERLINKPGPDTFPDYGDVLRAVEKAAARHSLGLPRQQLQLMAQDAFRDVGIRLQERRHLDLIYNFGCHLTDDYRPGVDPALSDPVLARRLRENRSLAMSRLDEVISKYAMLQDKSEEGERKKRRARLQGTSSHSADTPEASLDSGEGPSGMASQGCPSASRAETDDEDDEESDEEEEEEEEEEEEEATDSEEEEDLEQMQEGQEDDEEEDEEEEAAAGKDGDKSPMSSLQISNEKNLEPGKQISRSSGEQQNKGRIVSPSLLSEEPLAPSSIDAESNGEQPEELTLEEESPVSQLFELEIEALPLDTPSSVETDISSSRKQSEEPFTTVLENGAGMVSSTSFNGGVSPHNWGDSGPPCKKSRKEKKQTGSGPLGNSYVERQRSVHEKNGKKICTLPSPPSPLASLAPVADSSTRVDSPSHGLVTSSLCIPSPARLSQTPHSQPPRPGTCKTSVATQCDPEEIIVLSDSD
UniProt Q9ULD0: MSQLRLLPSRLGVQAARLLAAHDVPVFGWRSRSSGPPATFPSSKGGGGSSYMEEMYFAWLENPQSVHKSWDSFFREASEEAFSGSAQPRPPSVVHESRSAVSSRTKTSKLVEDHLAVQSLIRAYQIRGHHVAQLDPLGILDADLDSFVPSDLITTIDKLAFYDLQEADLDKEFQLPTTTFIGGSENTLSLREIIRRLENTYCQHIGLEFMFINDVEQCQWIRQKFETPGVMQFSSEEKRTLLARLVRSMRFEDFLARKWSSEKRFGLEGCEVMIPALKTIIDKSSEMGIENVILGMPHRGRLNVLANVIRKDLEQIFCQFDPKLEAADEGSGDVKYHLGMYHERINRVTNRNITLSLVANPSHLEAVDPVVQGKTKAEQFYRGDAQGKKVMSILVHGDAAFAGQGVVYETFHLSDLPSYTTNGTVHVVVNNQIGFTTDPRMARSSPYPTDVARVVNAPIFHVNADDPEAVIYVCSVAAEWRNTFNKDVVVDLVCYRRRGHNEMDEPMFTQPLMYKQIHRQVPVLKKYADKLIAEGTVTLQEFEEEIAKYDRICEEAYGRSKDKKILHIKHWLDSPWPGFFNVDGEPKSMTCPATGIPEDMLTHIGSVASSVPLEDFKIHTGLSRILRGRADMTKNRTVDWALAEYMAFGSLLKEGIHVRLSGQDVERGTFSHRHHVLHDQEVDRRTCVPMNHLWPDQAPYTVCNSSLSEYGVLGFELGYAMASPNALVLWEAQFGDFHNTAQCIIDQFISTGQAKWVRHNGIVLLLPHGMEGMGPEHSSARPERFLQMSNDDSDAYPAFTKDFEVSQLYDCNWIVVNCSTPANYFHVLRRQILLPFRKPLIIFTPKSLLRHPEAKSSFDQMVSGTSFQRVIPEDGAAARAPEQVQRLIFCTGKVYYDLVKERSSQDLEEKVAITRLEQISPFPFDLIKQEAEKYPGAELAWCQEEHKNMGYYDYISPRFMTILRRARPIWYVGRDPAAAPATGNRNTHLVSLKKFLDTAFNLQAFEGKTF
UniProt Q9Y2V2: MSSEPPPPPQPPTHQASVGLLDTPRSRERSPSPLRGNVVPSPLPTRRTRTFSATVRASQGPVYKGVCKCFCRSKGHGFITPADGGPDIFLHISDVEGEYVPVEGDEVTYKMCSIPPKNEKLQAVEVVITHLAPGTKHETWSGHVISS
UniProt Q9UHG3: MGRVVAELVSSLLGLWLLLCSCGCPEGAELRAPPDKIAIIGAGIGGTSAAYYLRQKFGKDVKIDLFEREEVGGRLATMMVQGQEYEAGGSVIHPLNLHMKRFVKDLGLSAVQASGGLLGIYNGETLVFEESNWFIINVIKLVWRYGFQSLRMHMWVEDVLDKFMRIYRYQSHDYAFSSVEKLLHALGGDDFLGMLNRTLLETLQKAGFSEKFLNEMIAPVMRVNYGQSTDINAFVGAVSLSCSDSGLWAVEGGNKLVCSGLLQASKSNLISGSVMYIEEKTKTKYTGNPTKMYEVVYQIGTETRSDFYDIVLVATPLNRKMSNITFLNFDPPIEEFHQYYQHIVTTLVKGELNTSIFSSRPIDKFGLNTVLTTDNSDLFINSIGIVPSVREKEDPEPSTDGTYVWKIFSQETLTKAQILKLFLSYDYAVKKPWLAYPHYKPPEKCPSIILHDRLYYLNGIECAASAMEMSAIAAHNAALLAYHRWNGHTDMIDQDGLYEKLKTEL
UniProt Q9ULR3: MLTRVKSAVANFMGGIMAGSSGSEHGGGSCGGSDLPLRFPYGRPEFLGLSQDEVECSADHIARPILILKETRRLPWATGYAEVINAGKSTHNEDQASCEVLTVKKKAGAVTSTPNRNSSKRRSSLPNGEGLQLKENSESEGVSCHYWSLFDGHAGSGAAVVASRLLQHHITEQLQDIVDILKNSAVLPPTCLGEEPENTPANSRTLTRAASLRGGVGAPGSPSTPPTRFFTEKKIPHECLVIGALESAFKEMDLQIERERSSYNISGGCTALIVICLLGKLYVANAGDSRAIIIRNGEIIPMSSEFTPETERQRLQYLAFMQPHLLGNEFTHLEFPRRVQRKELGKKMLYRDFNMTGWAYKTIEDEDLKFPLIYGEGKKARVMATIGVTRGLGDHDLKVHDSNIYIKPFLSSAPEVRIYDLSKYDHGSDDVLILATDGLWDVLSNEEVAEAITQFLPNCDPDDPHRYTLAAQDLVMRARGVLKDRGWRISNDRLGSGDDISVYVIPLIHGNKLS
UniProt Q9UNH7: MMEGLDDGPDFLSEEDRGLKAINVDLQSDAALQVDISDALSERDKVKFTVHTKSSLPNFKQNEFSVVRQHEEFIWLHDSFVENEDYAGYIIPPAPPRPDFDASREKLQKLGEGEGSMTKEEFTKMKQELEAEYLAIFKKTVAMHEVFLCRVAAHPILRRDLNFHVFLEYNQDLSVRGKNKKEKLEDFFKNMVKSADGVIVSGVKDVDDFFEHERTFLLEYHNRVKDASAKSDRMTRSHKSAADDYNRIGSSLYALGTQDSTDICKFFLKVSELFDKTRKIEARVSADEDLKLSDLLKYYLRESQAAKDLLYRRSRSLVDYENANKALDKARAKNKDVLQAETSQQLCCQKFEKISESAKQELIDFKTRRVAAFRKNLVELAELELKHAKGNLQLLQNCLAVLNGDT
UniProt Q9UJ83: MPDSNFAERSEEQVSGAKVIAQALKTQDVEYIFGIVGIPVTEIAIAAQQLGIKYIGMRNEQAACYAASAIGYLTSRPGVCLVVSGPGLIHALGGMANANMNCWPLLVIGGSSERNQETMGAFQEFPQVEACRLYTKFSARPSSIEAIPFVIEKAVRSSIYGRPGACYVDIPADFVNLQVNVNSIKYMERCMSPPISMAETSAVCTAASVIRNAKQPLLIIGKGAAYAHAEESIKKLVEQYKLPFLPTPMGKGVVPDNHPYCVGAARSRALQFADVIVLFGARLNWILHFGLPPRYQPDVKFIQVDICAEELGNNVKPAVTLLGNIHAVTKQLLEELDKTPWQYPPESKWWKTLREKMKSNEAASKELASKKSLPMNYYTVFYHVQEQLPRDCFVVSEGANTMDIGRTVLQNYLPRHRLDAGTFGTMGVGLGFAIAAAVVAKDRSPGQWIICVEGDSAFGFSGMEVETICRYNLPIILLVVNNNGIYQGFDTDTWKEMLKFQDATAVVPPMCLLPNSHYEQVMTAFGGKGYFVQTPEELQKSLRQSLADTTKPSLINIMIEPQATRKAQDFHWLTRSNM

± gives the standard deviation of the averaged measurements. The entries are a selection whose mix differs from that of the whole data set. Most entries show no effect beyond the scatter of the controls.

Compound in one test: Nc1ncnc2c1ncn2[C@@H]1O[C@H](COP(=O)(O)OP(=O)(O)NP(=O)(O)O)[C@@H](O)[C@H]1O [adenylyl imidodiphosphate]
The experiment in a line: NP40-soluble protein abundance relative to vehicle (solubility fold change) (ratio); higher = more soluble protein in presence of AMP-PNP. The conditions noted are these: concentration: 0.1mM. The procedure, abridged:
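In three independent experiments, Jurkat crude lysate made by Dounce homogenisation was treated for 10 min at room temperature and then 3 min at 37 °C with eight concentrations ranging from 0.1 to 10 mM. It was then solubilised with 0.8% NP40 plus benzonase for 60 min at 4 °C and ultracentrifuged. The supernatant was TMT-labelled for LC-MS/MS, and each value is the fold change against the detergent-processed vehicle for the same replicate, using vsn-normalised intensities.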
Consider PFDN2 (UniProt Q9UHV9), for which the NP40-soluble protein abundance came to 1.01 ± 0.036.

Regarding XPO7 (UniProt Q9UIA9), the NP40-soluble protein abundance was determined as 1 ± 0.037.

In the case of UniProt Q9UKM9 and related entries, the NP40-soluble protein abundance stood at 1.01 ± 0.053.

As to UniProt Q9UPN6 and related entries, the NP40-soluble protein abundance turned out to be 0.995 ± 0.016.

On to UniProt Q9Y2S2 and related entries, for which the NP40-soluble protein abundance stood at 1.02 ± 0.052.

In the case of UniProt Q9UID6 and related entries, the NP40-soluble protein abundance is 1 ± 0.022.

Consider UniProt Q9ULE6, for which the NP40-soluble protein abundance is 0.981 ± 0.028.

For UniProt Q9UJU2 and related entries, the NP40-soluble protein abundance was 1.01 ± 0.066.

On to UniProt Q9Y2H1, for which the NP40-soluble protein abundance amounted to 1.01 ± 0.014.

Turning to UniProt Q9Y2G2 and related entries, the NP40-soluble protein abundance amounted to 0.958 ± 0.02.

EPDR1 (UniProt Q9UM22): the NP40-soluble protein abundance was found to be 1.03 ± 0.044.

Regarding UniProt Q9UER7 and related entries, the NP40-soluble protein abundance amounted to 1.02 ± 0.048.

UniProt Q9UNS1 and related entries: the NP40-soluble protein abundance was 0.971 ± 0.037.

For the target UniProt Q9ULD0, the NP40-soluble protein abundance is 1.01 ± 0.018.

For the target UniProt Q9UBS9-2|Q9UBS9, the NP40-soluble protein abundance stood at 0.9712 ± 0.0051.

As for LNPEP (UniProt Q9UIQ6), the NP40-soluble protein abundance came to 1.01 ± 0.017.

Take DRG1 (UniProt Q9Y295): the NP40-soluble protein abundance came to 1.02 ± 0.014.

Take ZNF148 (UniProt Q9UQR1): the NP40-soluble protein abundance is 0.977 ± 0.014.

With CARHSP1 (UniProt Q9Y2V2), the NP40-soluble protein abundance came to 1 ± 0.014.

With PCYOX1 (UniProt Q9UHG3), the NP40-soluble protein abundance turned out to be 1.02 ± 0.031.

Take AMDHD2 (UniProt Q9Y303): the NP40-soluble protein abundance was determined as 1.02 ± 0.026.

For CYB5R1 (UniProt Q9UHQ9), the NP40-soluble protein abundance was 1.03 ± 0.028.

As for PPM1H (UniProt Q9ULR3), the NP40-soluble protein abundance turned out to be 0.997 ± 0.048.

Take UniProt Q9UH99 and related entries: the NP40-soluble protein abundance was 1 ± 0.022.

For SUGT1 (UniProt Q9Y2Z0), the NP40-soluble protein abundance was 0.9897 ± 0.0065.

For the target UniProt Q9UP95 and related entries, the NP40-soluble protein abundance turned out to be 0.99 ± 0.011.

On to ATP11B (UniProt Q9Y2G3), for which the NP40-soluble protein abundance was 1.044 ± 0.0067.

As to SNX6 (UniProt Q9UNH7), the NP40-soluble protein abundance is 0.976 ± 0.019.

Consider VPS51 (UniProt Q9UID3), for which the NP40-soluble protein abundance stood at 1.02 ± 0.031.

Take LUC7L2 (UniProt Q9Y383): the NP40-soluble protein abundance came out at 1.05 ± 0.06.

UniProt Q9UJ83 and related entries: the NP40-soluble protein abundance stood at 1.01 ± 0.043.

Consider SLC5A6 (UniProt Q9Y289), for which the NP40-soluble protein abundance was 1.02 ± 0.02.

On to CFDP1 (UniProt Q9UEE9), for which the NP40-soluble protein abundance was found to be 0.977 ± 0.037.

Take ACAD8 (UniProt Q9UKU7): the NP40-soluble protein abundance came out at 0.9956 ± 0.0064.

Turning to VPS28 (UniProt Q9UK41), the NP40-soluble protein abundance is 0.988 ± 0.065.

Regarding UniProt Q9Y223 and related entries, the NP40-soluble protein abundance was 1.03 ± 0.012.

As for SEL1L (UniProt Q9UBV2), the NP40-soluble protein abundance was 0.994 ± 0.038.

The same test, now with this note: concentration: 0.5mM.
For PFDN2 (UniProt Q9UHV9), the NP40-soluble protein abundance was 1.07 ± 0.074.

In the case of XPO7 (UniProt Q9UIA9), the NP40-soluble protein abundance came out at 0.986 ± 0.036.

Regarding UniProt Q9UKM9 and related entries, the NP40-soluble protein abundance was 1.03 ± 0.051.

Take UniProt Q9UPN6 and related entries: the NP40-soluble protein abundance turned out to be 0.992 ± 0.032.

As to UniProt Q9Y2S2 and related entries, the NP40-soluble protein abundance is 1 ± 0.11.

Regarding UniProt Q9UID6 and related entries, the NP40-soluble protein abundance was 1.011 ± 0.0079.

On to UniProt Q9ULE6, for which the NP40-soluble protein abundance stood at 0.974 ± 0.051.

Turning to UniProt Q9UJU2 and related entries, the NP40-soluble protein abundance was 1.04 ± 0.12.

As to UniProt Q9Y2H1, the NP40-soluble protein abundance came to 1.03 ± 0.054.

In the case of UniProt Q9Y2G2 and related entries, the NP40-soluble protein abundance was 0.986 ± 0.017.

Take EPDR1 (UniProt Q9UM22): the NP40-soluble protein abundance stood at 1.07 ± 0.08.

As for UniProt Q9UER7 and related entries, the NP40-soluble protein abundance is 1.01 ± 0.05.

Consider UniProt Q9UNS1 and related entries, for which the NP40-soluble protein abundance was 0.96 ± 0.038.

Consider UniProt Q9ULD0, for which the NP40-soluble protein abundance was 0.998 ± 0.018.

On to UniProt Q9UBS9-2|Q9UBS9, for which the NP40-soluble protein abundance worked out at 1 ± 0.033.

LNPEP (UniProt Q9UIQ6): the NP40-soluble protein abundance was found to be 1.03 ± 0.062.

As for DRG1 (UniProt Q9Y295), the NP40-soluble protein abundance amounted to 0.995 ± 0.023.

On to ZNF148 (UniProt Q9UQR1), for which the NP40-soluble protein abundance was determined as 0.992 ± 0.029.

On to CARHSP1 (UniProt Q9Y2V2), for which the NP40-soluble protein abundance was 1.03 ± 0.051.

Turning to PCYOX1 (UniProt Q9UHG3), the NP40-soluble protein abundance worked out at 1 ± 0.027.

As to AMDHD2 (UniProt Q9Y303), the NP40-soluble protein abundance came to 0.977 ± 0.069.

Take CYB5R1 (UniProt Q9UHQ9): the NP40-soluble protein abundance came to 1.01 ± 0.11.

Consider PPM1H (UniProt Q9ULR3), for which the NP40-soluble protein abundance amounted to 0.987 ± 0.041.

On to UniProt Q9UH99 and related entries, for which the NP40-soluble protein abundance is 1.04 ± 0.042.

Take SUGT1 (UniProt Q9Y2Z0): the NP40-soluble protein abundance came out at 1.016 ± 0.0097.

Take UniProt Q9UP95 and related entries: the NP40-soluble protein abundance was 0.983 ± 0.019.

ATP11B (UniProt Q9Y2G3): the NP40-soluble protein abundance came to 0.956 ± 0.12.

As to SNX6 (UniProt Q9UNH7), the NP40-soluble protein abundance stood at 1.02 ± 0.056.

Turning to VPS51 (UniProt Q9UID3), the NP40-soluble protein abundance is 1.03 ± 0.069.

For the target LUC7L2 (UniProt Q9Y383), the NP40-soluble protein abundance was found to be 1.03 ± 0.082.

As for UniProt Q9UJ83 and related entries, the NP40-soluble protein abundance came out at 0.982 ± 0.06.

Regarding SLC5A6 (UniProt Q9Y289), the NP40-soluble protein abundance amounted to 0.995 ± 0.075.

With CFDP1 (UniProt Q9UEE9), the NP40-soluble protein abundance came out at 1.03 ± 0.1.

As for ACAD8 (UniProt Q9UKU7), the NP40-soluble protein abundance is 0.989 ± 0.021.

As to VPS28 (UniProt Q9UK41), the NP40-soluble protein abundance stood at 1 ± 0.059.

Take UniProt Q9Y223 and related entries: the NP40-soluble protein abundance was found to be 0.986 ± 0.09.

On to SEL1L (UniProt Q9UBV2), for which the NP40-soluble protein abundance came to 1 ± 0.026.
